Some entries share one result that the patent states for a list of compounds.
How the values were obtained:
Type in all cases: in vivo
[1] = tested on: Myzus persicae; assay: Test for control efficacy on Myzus persicae (foliar application, potted Chinese cabbage); conditions: 500 ppm dispersion in water, foliar application to Chinese cabbage, 6 days after application
[2] = tested on: Plutella xylostella; assay: Insecticidal test on Plutella xylostella (dip of Chinese cabbage seedlings with laid eggs); conditions: 500 ppm, seedlings with laid eggs dipped about 30 seconds, 25° C., 6 days after dip treatment; criteria of Test Example 2
Text: Insecticidal Test on Plutella xylostella
Adults of Plutella xylostella were released onto Chinese cabbage seedlings and allowed to lay eggs thereon. At 2 days after the release of the adults, the Chinese cabbage seedlings with laid eggs were dipped for about 30 seconds in agrochemical dispersions diluted to 500 ppm, each of which contained a different kind of oxime group-containing quinoline compound represented by the general formula (1) of the present invention as an active ingredient. After air-dried, the seedlings were kept in a thermostatic chamber at 25° C. At 6 days after the dip treatment, the number of hatched larvae per plot was counted, the mortality rate was calculated according to the formula shown below, and the insecticidal efficacy was evaluated according to the criteria of Test Example 2. This test was conducted in triplicate using 10 adults of Plutella xylostella per plot. Corrected mortality rate (%)=100×(Number of hatched larvae in a non-treatment plot−Number of hatched larvae in a treatment plot)/Number of hatched larvae in a non-treatment plot [Math. 3]

[3] = tested on: Laodelphax striatellus; assay: Insecticidal test on Laodelphax striatellus (rice seedling dip); conditions: 500 ppm, rice seedlings dipped 30 seconds, 3rd-instar larvae, 8 days after inoculation
Text: Insecticidal Test on Laodelphax striatellus
The oxime group-containing quinoline compounds represented by the general formula (1) of the present invention or salts thereof were separately dispersed in water and diluted to 500 ppm. Rice plant seedlings (variety: Nihonbare) were dipped in the agrochemical dispersions for 30 seconds. After air-dried, each seedling was put into a separate glass test tube and inoculated with ten 3rd-instar larvae of Laodelphax striatellus, and then the glass test tubes were capped with cotton plugs. At 8 days after the inoculation, the numbers of surviving larvae and dead larvae were counted, the corrected mortality rate was calculated according to the formula shown below, and the insecticidal efficacy was evaluated according to the criteria shown below. Corrected mortality rate (%)=100×(Survival rate in a non-treatment plot−Survival rate in a treatment plot)/Survival rate in a non-treatment plot [Math. 2] Criteria A: the corrected mortality rate is 100%. B: the corrected mortality rate is 90 to 99%. C: the corrected mortality rate is 80 to 89%. D: the corrected mortality rate is 50 to 79%.

SMILES	control efficacy (control rate) activity level [1]	insecticidal efficacy (corrected mortality rate) activity level [2]	insecticidal efficacy (corrected mortality rate) activity level [3]
CCS(=O)(=O)c1cc2ccc(C=NOC(C)C)cc2nc1-c1nc2cc(C(F)(F)F)cnc2n1C [Compound 2-21]	A (the control rate is 100%.)	A (the corrected mortality rate is 100%.)	A (the corrected mortality rate is 100%.)
CCS(=O)(=O)c1cc2ccc(C=NOCSC(C)(C)C)cc2nc1-c1nc2cc(C(F)(F)F)cnc2n1C [Compound 2-36]	A (the control rate is 100%.)	A (the corrected mortality rate is 100%.)	A (the corrected mortality rate is 100%.)
CCOC(=O)ON=Cc1ccc2cc(S(=O)(=O)CC)c(-c3nc4cc(C(F)(F)F)cnc4n3C)nc2c1 [Compound 2-29]	A (the control rate is 100%.)	A (the corrected mortality rate is 100%.)	A (the corrected mortality rate is 100%.)
CCS(=O)(=O)c1cc2ccc(C=NOCS(=O)(=O)C(C)C)cc2nc1-c1nc2cc(C(F)(F)F)cnc2n1C [Compound 2-35]	A (the control rate is 100%.)	A (the corrected mortality rate is 100%.)	A (the corrected mortality rate is 100%.)
CC[S+]([O-])CON=Cc1ccc2cc(S(=O)(=O)CC)c(-c3nc4cc(C(F)(F)F)cnc4n3C)nc2c1 (centres unmarked) [Compound 2-31]	A (the control rate is 100%.)	A (the corrected mortality rate is 100%.)	A (the corrected mortality rate is 100%.)
CCS(=O)(=O)c1cc2ccc(C=NOC(C)(C)C)cc2nc1-c1nc2cc(C(F)(F)F)cnc2n1C [Compound 2-22]	A (the control rate is 100%.)	A (the corrected mortality rate is 100%.)	A (the corrected mortality rate is 100%.)
CCS(=O)(=O)c1cc2ccc(C=NOCC(F)F)cc2nc1-c1nc2cc(C(F)(F)F)cnc2n1C [Compound 2-13]	A (the control rate is 100%.)	A (the corrected mortality rate is 100%.)	A (the corrected mortality rate is 100%.)
CCS(=O)(=O)c1cc2ccc(C=NOCC3CC3)cc2nc1-c1nc2cc(C(F)(F)F)cnc2n1C [Compound 2-11]	A (the control rate is 100%.)	A (the corrected mortality rate is 100%.)	A (the corrected mortality rate is 100%.)
CCS(=O)(=O)c1cc2ccc(C=NOCCSC)cc2nc1-c1nc2cc(C(F)(F)F)cnc2n1C [Compound 2-26]	A (the control rate is 100%.)	A (the corrected mortality rate is 100%.)	A (the corrected mortality rate is 100%.)
CCCON=Cc1ccc2cc(S(=O)(=O)CC)c(-c3nc4cc(C(F)(F)F)cnc4n3C)nc2c1 [Compound 2-5]	A (the control rate is 100%.)	A (the corrected mortality rate is 100%.)	A (the corrected mortality rate is 100%.)
CCS(=O)(=O)c1cc2ccc(C=NOCS(=O)(=O)C(C)(C)C)cc2nc1-c1nc2cc(C(F)(F)F)cnc2n1C [Compound 2-38]	A (the control rate is 100%.)	A (the corrected mortality rate is 100%.)	A (the corrected mortality rate is 100%.)
CCS(=O)(=O)c1cc2ccc(C=NOC[S+]([O-])C(C)C)cc2nc1-c1nc2cc(C(F)(F)F)cnc2n1C (centres unmarked) [Compound 2-34]	A (the control rate is 100%.)	A (the corrected mortality rate is 100%.)	A (the corrected mortality rate is 100%.)
CCS(=O)(=O)c1cc2ccc(C=NOCSC(C)C)cc2nc1-c1nc2cc(C(F)(F)F)cnc2n1C [Compound 2-33]	A (the control rate is 100%.)	A (the corrected mortality rate is 100%.)	A (the corrected mortality rate is 100%.)
CCS(=O)(=O)c1cc2ccc(C=NO)cc2nc1-c1nc2cc(SC(F)(F)F)ccc2n1C [Compound 5-1]	A (the control rate is 100%.)		
CCS(=O)(=O)CON=Cc1ccc2cc(S(=O)(=O)CC)c(-c3nc4cc(C(F)(F)F)cnc4n3C)nc2c1 [Compound 2-32]	A (the control rate is 100%.)	A (the corrected mortality rate is 100%.)	A (the corrected mortality rate is 100%.)
CCS(=O)(=O)c1cc2ccc(C=NOC[S+]([O-])C(C)(C)C)cc2nc1-c1nc2cc(C(F)(F)F)cnc2n1C (centres unmarked) [Compound 2-37]	A (the control rate is 100%.)	A (the corrected mortality rate is 100%.)	A (the corrected mortality rate is 100%.)
CCS(=O)(=O)c1cc2ccc(C=NOCC(C)C)cc2nc1-c1nc2cc(C(F)(F)F)cnc2n1C [Compound 2-23]	A (the control rate is 100%.)	A (the corrected mortality rate is 100%.)	A (the corrected mortality rate is 100%.)
CCS(=O)(=O)c1cc2ccc(C=NOCOC)cc2nc1-c1nc2cc(C(F)(F)F)cnc2n1C [Compound 2-27]	A (the control rate is 100%.)	A (the corrected mortality rate is 100%.)	A (the corrected mortality rate is 100%.)
CCS(=O)(=O)c1cc2ccc(C(C)=NOCC(F)(F)F)cc2nc1-c1nc2cc(C(F)(F)F)cnc2n1C [Compound 2-8]	A (the control rate is 100%.)	A (the corrected mortality rate is 100%.)	A (the corrected mortality rate is 100%.)
CCS(=O)(=O)c1cc2ccc(C=NOCS(C)(=O)=O)cc2nc1-c1nc2cc(C(F)(F)F)nnc2n1C [Compound 6-10]	A (the control rate is 100%.)		
CCS(=O)(=O)c1cc2ccc(C=NOC[S+](C)[O-])cc2nc1-c1nc2cc(C(F)(F)F)nnc2n1C (centres unmarked) [Compound 6-9]	A (the control rate is 100%.)		
CCS(=O)(=O)c1cc2ccc(C=NOCSC)cc2nc1-c1nc2cc(C(F)(F)F)nnc2n1C [Compound 6-8]	A (the control rate is 100%.)		
CCS(=O)(=O)c1cc2ccc(C=NO)cc2nc1-c1nc2cc(C(F)(F)F)cnc2n1C [Compound 2-1]	A (the control rate is 100%.)	A (the corrected mortality rate is 100%.)	A (the corrected mortality rate is 100%.)
CCON=Cc1ccc2cc(S(=O)(=O)CC)c(-c3nc4cc(C(F)(F)F)cnc4n3C)nc2c1 [Compound 2-3]	A (the control rate is 100%.)	A (the corrected mortality rate is 100%.)	A (the corrected mortality rate is 100%.)
CCS(=O)(=O)c1cc2ccc(C=NOCSC)cc2nc1-c1nc2cc(S(=O)(=O)C(F)(F)F)ccc2o1 [Compound 4-39]	A (the control rate is 100%.)		
CCS(=O)(=O)c1cc2ccc(C=NO)cc2nc1-c1nc2cc(C(F)(F)C(F)(F)F)nnc2n1C [Compound 6-1]	A (the control rate is 100%.)		
CCS(=O)(=O)c1cc2ccc(C=NOCC(F)F)cc2nc1-c1nc2cc(S(=O)(=O)C(F)(F)F)ccc2n1C [Compound 5-5]	A (the control rate is 100%.)		
CCS(=O)(=O)c1cc2ccc(C=NO)cc2nc1-c1nc2cc(C(F)(F)F)nnc2n1C [Compound 6-6]	A (the control rate is 100%.)		
